Experimental data taken from the supplement of paper PMC10849652.
The other results are listed elsewhere or left out.

Amino acid sequences for entries named in this document (tags omitted). A change or cut given only in a name is not applied to a line headed by its entry.
UniProt Q8N201, whole entry, looked up: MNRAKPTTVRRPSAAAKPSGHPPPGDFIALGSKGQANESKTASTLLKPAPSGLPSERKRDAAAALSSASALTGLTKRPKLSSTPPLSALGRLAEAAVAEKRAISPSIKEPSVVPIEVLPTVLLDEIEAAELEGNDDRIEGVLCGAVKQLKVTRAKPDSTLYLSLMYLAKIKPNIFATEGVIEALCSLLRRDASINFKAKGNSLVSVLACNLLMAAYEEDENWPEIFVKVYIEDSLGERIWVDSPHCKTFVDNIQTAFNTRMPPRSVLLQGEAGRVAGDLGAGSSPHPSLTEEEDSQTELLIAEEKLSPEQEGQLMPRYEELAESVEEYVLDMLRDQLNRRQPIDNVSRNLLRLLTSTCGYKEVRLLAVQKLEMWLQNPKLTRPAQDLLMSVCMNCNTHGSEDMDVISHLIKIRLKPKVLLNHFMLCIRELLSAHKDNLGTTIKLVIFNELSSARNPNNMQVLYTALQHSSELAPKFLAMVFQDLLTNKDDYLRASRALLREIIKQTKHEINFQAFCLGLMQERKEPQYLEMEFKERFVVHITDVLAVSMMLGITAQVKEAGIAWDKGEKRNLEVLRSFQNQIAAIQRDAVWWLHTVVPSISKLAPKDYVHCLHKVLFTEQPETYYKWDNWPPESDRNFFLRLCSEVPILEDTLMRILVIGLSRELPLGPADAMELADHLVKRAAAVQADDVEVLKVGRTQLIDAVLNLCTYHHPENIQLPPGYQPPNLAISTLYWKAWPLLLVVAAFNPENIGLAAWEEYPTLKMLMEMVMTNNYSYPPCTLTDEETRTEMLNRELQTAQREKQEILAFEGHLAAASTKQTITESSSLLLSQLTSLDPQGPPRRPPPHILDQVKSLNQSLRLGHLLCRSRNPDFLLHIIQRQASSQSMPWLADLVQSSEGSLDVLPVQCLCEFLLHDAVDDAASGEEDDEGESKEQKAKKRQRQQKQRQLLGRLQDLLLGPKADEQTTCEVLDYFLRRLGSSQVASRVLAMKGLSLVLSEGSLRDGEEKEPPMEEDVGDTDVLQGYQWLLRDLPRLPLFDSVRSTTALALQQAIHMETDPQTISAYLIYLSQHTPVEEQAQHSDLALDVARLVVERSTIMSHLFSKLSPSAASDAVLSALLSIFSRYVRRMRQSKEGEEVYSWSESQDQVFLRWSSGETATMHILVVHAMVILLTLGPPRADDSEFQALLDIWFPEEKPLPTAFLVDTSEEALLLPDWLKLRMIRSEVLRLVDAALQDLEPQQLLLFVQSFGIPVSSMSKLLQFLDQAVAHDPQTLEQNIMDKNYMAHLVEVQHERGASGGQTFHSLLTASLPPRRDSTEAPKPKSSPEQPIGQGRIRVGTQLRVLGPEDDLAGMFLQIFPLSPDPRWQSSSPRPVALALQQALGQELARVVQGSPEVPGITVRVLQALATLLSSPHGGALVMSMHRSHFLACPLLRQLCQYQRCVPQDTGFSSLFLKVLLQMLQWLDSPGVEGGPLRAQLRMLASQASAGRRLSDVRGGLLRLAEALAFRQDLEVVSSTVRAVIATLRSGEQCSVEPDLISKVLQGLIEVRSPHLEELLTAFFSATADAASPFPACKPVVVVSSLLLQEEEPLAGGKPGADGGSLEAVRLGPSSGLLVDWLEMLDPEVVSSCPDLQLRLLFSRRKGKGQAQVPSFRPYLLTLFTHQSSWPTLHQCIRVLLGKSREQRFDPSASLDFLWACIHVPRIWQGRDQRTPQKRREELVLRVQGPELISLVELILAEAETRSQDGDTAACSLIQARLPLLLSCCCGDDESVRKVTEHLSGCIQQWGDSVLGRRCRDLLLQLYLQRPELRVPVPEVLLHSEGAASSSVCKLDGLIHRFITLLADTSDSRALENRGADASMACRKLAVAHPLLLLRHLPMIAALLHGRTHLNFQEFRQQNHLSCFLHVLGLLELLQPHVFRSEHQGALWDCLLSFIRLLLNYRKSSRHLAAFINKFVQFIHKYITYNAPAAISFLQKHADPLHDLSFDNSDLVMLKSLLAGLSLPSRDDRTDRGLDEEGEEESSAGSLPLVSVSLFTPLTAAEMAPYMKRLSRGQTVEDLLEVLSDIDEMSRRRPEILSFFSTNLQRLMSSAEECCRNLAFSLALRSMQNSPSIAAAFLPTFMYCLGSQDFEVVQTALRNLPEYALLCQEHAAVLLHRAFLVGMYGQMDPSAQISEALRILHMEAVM
UniProt Q969P0: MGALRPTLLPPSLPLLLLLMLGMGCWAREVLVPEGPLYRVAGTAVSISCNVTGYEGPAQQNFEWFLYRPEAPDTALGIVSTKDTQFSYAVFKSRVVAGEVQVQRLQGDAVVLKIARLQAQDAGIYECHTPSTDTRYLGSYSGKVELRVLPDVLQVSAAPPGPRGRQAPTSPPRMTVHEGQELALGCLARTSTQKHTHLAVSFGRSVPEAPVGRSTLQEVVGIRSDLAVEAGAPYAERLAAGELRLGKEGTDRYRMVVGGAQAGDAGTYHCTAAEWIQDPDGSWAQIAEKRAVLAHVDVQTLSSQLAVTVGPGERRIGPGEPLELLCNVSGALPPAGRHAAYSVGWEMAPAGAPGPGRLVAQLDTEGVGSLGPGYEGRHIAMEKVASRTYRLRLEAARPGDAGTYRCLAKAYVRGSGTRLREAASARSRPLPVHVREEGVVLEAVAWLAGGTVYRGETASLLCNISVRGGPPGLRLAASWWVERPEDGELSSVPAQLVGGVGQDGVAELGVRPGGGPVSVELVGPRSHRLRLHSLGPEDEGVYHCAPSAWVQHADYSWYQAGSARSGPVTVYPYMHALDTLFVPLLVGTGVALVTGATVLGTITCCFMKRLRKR
UniProt Q9Y287, whole entry, looked up: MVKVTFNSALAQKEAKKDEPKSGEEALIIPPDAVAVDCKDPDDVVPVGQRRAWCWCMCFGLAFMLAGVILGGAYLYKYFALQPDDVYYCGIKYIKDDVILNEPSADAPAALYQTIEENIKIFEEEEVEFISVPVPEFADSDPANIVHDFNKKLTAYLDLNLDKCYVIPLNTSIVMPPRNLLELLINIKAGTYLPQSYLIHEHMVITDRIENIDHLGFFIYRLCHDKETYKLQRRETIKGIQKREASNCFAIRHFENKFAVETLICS
UniProt Q13422: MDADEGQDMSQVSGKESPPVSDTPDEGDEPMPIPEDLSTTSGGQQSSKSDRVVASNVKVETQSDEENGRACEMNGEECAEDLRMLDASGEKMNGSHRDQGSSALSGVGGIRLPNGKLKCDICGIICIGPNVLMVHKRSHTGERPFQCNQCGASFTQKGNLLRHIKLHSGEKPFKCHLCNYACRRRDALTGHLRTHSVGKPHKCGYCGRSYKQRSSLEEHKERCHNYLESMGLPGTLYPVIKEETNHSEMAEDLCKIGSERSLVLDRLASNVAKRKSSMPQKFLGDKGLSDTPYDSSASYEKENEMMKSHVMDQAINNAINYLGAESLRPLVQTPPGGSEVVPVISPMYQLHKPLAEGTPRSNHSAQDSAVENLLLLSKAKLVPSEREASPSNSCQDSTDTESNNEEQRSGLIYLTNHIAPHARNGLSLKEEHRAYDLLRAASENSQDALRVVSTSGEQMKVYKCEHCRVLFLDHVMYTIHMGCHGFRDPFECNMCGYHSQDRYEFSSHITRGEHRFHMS
UniProt Q96LU5: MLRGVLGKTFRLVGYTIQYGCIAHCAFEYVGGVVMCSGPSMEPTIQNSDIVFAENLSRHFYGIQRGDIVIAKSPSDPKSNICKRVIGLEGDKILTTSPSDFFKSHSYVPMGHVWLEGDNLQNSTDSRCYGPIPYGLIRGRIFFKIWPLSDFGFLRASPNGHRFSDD
UniProt Q9H6K1: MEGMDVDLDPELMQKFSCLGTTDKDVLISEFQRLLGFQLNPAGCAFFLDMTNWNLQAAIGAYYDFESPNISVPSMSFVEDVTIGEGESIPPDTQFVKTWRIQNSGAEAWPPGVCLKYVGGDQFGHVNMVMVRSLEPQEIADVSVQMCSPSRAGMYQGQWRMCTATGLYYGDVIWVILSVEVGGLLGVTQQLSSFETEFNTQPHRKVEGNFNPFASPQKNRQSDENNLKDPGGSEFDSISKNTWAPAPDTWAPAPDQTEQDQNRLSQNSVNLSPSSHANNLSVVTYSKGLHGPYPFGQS
UniProt Q9NVH2, whole entry, looked up: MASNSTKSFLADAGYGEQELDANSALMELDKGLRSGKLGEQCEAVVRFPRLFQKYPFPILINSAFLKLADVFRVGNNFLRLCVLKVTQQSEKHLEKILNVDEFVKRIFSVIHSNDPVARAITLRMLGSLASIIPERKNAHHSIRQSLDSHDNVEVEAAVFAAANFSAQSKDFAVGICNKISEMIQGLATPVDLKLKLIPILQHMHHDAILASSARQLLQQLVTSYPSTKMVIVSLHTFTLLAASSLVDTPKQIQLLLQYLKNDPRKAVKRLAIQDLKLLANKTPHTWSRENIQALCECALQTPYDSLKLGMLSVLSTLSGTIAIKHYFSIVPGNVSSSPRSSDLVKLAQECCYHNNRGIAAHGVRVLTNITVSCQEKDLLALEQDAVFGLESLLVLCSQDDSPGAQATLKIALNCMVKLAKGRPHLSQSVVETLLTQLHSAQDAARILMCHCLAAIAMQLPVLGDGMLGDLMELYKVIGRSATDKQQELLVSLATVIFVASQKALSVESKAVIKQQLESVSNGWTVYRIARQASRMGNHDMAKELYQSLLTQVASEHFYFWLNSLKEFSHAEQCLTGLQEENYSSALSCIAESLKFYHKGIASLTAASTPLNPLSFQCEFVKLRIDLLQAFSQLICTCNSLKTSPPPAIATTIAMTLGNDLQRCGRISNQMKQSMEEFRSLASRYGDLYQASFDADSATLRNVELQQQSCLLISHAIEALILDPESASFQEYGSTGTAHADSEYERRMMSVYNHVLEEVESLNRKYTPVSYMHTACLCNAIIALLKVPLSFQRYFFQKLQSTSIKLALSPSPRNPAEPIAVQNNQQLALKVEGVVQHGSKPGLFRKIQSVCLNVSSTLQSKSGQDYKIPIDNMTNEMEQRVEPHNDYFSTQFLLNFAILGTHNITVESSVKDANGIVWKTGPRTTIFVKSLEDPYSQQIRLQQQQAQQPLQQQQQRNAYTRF
UniProt Q9NQX7: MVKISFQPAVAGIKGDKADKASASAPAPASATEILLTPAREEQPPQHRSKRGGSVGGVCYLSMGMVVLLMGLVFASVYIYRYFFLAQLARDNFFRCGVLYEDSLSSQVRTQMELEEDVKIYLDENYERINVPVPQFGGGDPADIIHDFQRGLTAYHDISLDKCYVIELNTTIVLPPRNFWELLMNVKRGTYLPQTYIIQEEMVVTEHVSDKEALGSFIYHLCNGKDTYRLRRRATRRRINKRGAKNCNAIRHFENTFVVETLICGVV
UniProt Q01628, whole entry, looked up: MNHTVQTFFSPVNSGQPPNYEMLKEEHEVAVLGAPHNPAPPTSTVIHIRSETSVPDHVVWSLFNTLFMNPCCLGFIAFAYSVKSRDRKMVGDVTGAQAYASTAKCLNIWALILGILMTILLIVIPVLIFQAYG
UniProt P38570: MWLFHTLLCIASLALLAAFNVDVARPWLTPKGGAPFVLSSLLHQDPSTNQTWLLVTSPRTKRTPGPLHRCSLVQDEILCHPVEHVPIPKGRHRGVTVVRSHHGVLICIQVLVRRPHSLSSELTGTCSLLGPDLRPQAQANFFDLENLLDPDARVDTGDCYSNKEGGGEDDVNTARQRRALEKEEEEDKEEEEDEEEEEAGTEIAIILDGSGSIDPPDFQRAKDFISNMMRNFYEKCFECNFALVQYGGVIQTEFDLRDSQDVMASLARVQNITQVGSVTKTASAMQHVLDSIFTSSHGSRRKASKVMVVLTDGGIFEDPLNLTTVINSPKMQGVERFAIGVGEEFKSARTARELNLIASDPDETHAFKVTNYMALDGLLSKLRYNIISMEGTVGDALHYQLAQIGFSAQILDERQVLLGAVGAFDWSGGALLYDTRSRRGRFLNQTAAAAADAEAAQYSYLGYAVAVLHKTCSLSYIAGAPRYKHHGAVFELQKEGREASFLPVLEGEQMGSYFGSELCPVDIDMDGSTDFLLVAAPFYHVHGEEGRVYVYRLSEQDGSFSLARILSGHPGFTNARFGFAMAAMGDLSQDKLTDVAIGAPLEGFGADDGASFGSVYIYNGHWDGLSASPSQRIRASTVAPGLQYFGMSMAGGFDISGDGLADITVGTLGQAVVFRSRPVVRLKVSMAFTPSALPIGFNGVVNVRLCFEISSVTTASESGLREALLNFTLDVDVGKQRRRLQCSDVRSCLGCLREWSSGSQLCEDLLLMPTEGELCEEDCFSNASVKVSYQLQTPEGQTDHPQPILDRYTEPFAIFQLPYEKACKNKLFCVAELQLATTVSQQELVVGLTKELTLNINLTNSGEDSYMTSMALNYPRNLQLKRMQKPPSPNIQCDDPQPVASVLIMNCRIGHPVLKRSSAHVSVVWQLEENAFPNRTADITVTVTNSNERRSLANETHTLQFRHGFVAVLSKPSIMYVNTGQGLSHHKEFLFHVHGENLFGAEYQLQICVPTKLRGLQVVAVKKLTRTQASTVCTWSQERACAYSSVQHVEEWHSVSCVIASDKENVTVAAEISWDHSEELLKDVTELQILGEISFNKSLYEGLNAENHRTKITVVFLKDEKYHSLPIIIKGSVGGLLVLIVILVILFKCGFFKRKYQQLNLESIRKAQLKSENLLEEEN

What was measured:
Assay in all cases: log2 fold change, soluble protein after heating vs DMSO (PISA); higher = thermal stabilisation; K562 cells, 10 uM, 30 min; active = over 0.2 and 3.5 SD of the protein, either way, in both replicates (recomputed)
[1] = compound: CN1CCN(CCOc2cc(OC3CCOCC3)c3c(Nc4c(Cl)ccc5c4OCO5)ncnc3c2)CC1 [saracatinib]
In short: (§1)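 Values are thermal stability changes relative to control samples and are taken from duplicates. They are stated as log2 fold changes. Before quantification by TMTpro 16plex LC-MS/MS with equalised channel sums, K562 cells at 2×10^6 cells/mL were treated with 10 μM compound for 30 min, heated in aliquots for 3 min across 48°C-58°C, pooled, extracted in PBS with 0.5% NP-40 at 4°C, and centrifuged at 21,000xg for 90 min to give the soluble supernatant.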

[2] = compound: CN1CCN(c2nc(C3=C(c4c[nH]c5ccccc45)C(=O)NC3=O)c3ccccc3n2)CC1 [sotrastaurin]
In short: as §1

[3] = compound: CN1CCc2c(c3ccccc3n2Cc2ccc(C(=O)NO)cc2)C1 [Tubastatin A]
In short: as §1

[4] = compound: CNC(=O)C1=CC=CC=C1NC2=NC(=NC=C2Cl)NC3=C(C=C(C=C3)N4CCOCC4)OC
In short: as §1

[5] = compound: CNC(=O)c1ccc(Nc2ncc(C(F)(F)F)c(NCc3nccnc3N(C)S(C)(=O)=O)n2)cc1 [defactinib]
In short: as §1

[6] = compound: CNCc1ccc(-c2[nH]c3cc(F)cc4c3c2CCNC4=O)cc1 [rucaparib]
In short: as §1

[7] = compound: CNc1nc(-c2ccc3c(N)n[nH]c3c2)cc(N2C[C@@H](C(=O)NC3CCCCC3)CC[C@H]2C)n1
In short: as §1

[8] = compound: COC(=O)N[C@@H](C)CNc1nccc(-c2cn(C(C)C)nc2-c2cc(Cl)cc(NS(C)(=O)=O)c2F)n1 [encorafenib]
In short: as §1

[9] = compound: COC(=O)[C@H](CCSC)NC(=O)C1=C(C=C(C=C1)NC[C@H](CS)N)C2=CC=CC=C2
In short: as §1

[10] = compound: CN1CC[C@H](c2c(O)cc(O)c3c(=O)cc(-c4ccccc4Cl)oc23)[C@H](O)C1 [alvocidib]
In short: as §1

Target	log2 fold change [1]	log2 fold change [2]	log2 fold change [3]	log2 fold change [4]	log2 fold change [5]	log2 fold change [6]	log2 fold change [7]	log2 fold change [8]	log2 fold change [9]	log2 fold change [10]
IGFBP4 (UniProt P22692)	inactive: 0.004	inactive: 0.114	inactive: -0.034	inactive: -0.044	inactive: 0.036	inactive: 0.007	inactive: -0.019	inactive: -0.034	inactive: 0.014	–
IMP4 (UniProt Q96G21)	inactive: -0.026	inactive: -0.024	–	–	–	–	inactive: 0.06	–	–	–
IFT74 (UniProt Q96LB3)	inactive: -0.079	inactive: -0.001	inactive: 0.259	inactive: -0.223	inactive: 0.028	inactive: 0.06	inactive: 0.003	inactive: -0.055	inactive: 0.075	–
INTS1 (UniProt Q8N201)	inactive: -0.098	inactive: 0.504	inactive: 0.153	inactive: 0.023	–	inactive: 0.093	inactive: -0.101	inactive: -0.124	–	–
IP6K1 (UniProt Q92551)	inactive: -0.174	inactive: -0.113	inactive: -0.06	inactive: 0.331	–	inactive: -0.045	inactive: 0.119	inactive: 0.094	–	–
IMMT isoform 4 (UniProt Q16891)	inactive: -0.012	inactive: -0.002	inactive: -0.033	inactive: -0.014	inactive: -0.012	inactive: -0.055	inactive: -0.007	inactive: 0.012	inactive: 0.002	–
INPP5B (UniProt P32019)	inactive: 0.024	inactive: -0.079	inactive: 0.07	inactive: -0.007	inactive: 0.112	inactive: 0.066	inactive: 0.043	inactive: -0.151	inactive: 0.141	–
IGSF8 (UniProt Q969P0)	inactive: -0.006	–	inactive: 0.18	inactive: 0.02	inactive: -0.01	inactive: 0	inactive: 0.128	inactive: -0.053	inactive: 0.021	inactive: 0.053
IPO9 (UniProt Q96P70)	inactive: 0.036	inactive: -0.13	inactive: -0.02	inactive: 0.034	inactive: -0.106	inactive: -0.051	inactive: -0.136	inactive: 0.056	inactive: 0	–
IFT80 isoform 3 (UniProt Q9P2H3)	inactive: -0.016	inactive: 0.029	inactive: 0.094	inactive: 0.01	inactive: -0.023	inactive: 0.029	inactive: -0.007	inactive: 0.056	inactive: 0.014	–
IDI1 isoform 2 (UniProt Q13907)	inactive: 0.01	inactive: 0.065	inactive: -0.174	inactive: -0.002	inactive: -0.006	inactive: -0.124	inactive: 0.002	inactive: -0.001	inactive: 0.044	–
ILF2 (UniProt Q12905)	inactive: 0.039	inactive: 0.041	inactive: -0.058	inactive: 0.015	active: 0.491	inactive: 0.19	inactive: 0.04	inactive: 0.028	inactive: 0.012	–
ITM2B (UniProt Q9Y287)	inactive: -0.181	inactive: 0.123	inactive: 0.143	inactive: 0.06	inactive: -0.007	inactive: 0.007	inactive: 0.091	inactive: 0.098	inactive: -0.096	–
IGFBP2 (UniProt P18065)	inactive: -0.049	inactive: 0.223	inactive: -0.032	inactive: -0.06	inactive: 0.134	inactive: 0.003	inactive: -0.148	inactive: 0.028	inactive: -0.053	–
IKZF1 (UniProt Q13422)	inactive: 0.038	inactive: -0.133	inactive: -0.018	inactive: -0.042	inactive: -0.1	inactive: -0.026	inactive: -0.029	inactive: -0.052	inactive: -0.008	–
IMMP1L (UniProt Q96LU5)	inactive: -0.041	inactive: -0.005	inactive: -0.024	inactive: -0.01	inactive: 0.011	inactive: -0.039	inactive: -0.102	inactive: -0.037	inactive: -0.027	–
ITGA2B (UniProt P08514)	inactive: 0.025	inactive: -0.03	inactive: -0.043	inactive: 0.037	inactive: 0.059	–	inactive: -0.036	–	inactive: 0.058	–

Target	log2 fold change [1]	log2 fold change [2]	log2 fold change [3]	log2 fold change [4]	log2 fold change [5]	log2 fold change [6]	log2 fold change [7]	log2 fold change [8]	log2 fold change [9]	log2 fold change [10]
IPO7 (UniProt O95373)	inactive: -0.004	inactive: -0.089	inactive: 0.023	inactive: 0.01	inactive: -0.163	inactive: -0.083	inactive: -0.012	inactive: 0.052	inactive: -0.015	–
ILVBL (UniProt A1L0T0)	inactive: -0.022	inactive: 0.135	inactive: -0.02	inactive: 0.002	inactive: -0.054	inactive: -0.024	inactive: 0.052	inactive: 0.059	inactive: 0.019	–
IFRD1 (UniProt O00458)	inactive: 0.026	inactive: 0.242	inactive: 0.089	inactive: 0.042	inactive: -0.003	active: -0.46	inactive: -0.042	inactive: 0.038	inactive: 0.006	–
ILRUN (UniProt Q9H6K1)	inactive: -0.132	inactive: -0.029	inactive: 0.116	inactive: 0.023	inactive: -0.036	inactive: 0.037	inactive: 0.049	inactive: 0.045	inactive: 0.121	–
ITIH4 (UniProt Q14624)	inactive: 0.045	inactive: 0.271	inactive: -0.003	inactive: -0.001	inactive: 0.101	inactive: -0.142	inactive: -0.124	inactive: -0.001	inactive: -0.009	–
IL18R1 (UniProt Q13478)	inactive: 0.036	inactive: -0.088	–	inactive: 0.413	–	–	inactive: -0.005	–	–	–
IGHG1 (UniProt P01857)	inactive: -0.195	inactive: -0.02	–	inactive: 0.116	inactive: -0.224	inactive: -0.025	inactive: -0.072	inactive: -0.157	inactive: -0.247	–
INTS7 (UniProt Q9NVH2)	inactive: 0.035	active: -0.503	inactive: 0	active: 0.529	inactive: -0.096	inactive: 0.019	inactive: -0.003	inactive: 0.036	inactive: -0.019	–
INTS5 (UniProt Q6P9B9)	inactive: -0.051	inactive: -0.06	inactive: -0.133	inactive: -0.086	inactive: -0.058	–	inactive: 0.044	–	inactive: 0	–
IL10RB (UniProt Q08334)	inactive: 0.107	inactive: -0.021	inactive: 0.022	inactive: -0.121	inactive: -0.042	inactive: 0.015	inactive: -0.005	inactive: -0.093	inactive: 0.026	–
IPO13 (UniProt O94829)	inactive: 0.111	inactive: -0.123	inactive: -0.03	inactive: 0.001	inactive: -0.04	inactive: -0.016	inactive: -0.109	inactive: 0.039	inactive: 0.033	–
ITM2C (UniProt Q9NQX7)	inactive: -0.007	inactive: -0.072	–	inactive: 0	inactive: 0.039	–	inactive: -0.003	–	inactive: -0.045	–
IFRD2 isoform 2 (UniProt Q12894)	inactive: 0.126	inactive: 0.31	inactive: -0.272	inactive: 0.022	inactive: 0.16	active: -0.549	inactive: -0.095	inactive: -0.031	inactive: 0.026	–
ILK (UniProt Q13418)	inactive: -0.119	inactive: 0.043	inactive: 0.01	inactive: -0.034	inactive: 0	inactive: 0.026	inactive: 0.031	inactive: 0.03	inactive: 0.06	–
IFITM3 (UniProt Q01628)	inactive: -0.022	inactive: 0.035	inactive: 0.241	inactive: 0.044	inactive: -0.165	inactive: 0.093	inactive: 0.03	inactive: 0.1	inactive: 0.008	–
ITGAE (UniProt P38570)	–	inactive: -0.364	–	inactive: -0.328	inactive: 0.004	–	–	–	inactive: -0.018	inactive: 0.113
IQSEC1 (UniProt Q6DN90)	–	inactive: 0.057	–	–	–	–	–	–	–	–

Some of the entries above, set out differently:
Target | log2 fold change [1] | log2 fold change [2] | log2 fold change [3] | log2 fold change [4] | log2 fold change [5] | log2 fold change [6] | log2 fold change [7] | log2 fold change [8] | log2 fold change [9] | log2 fold change [10]
ITM2C (UniProt Q9NQX7) | inactive: -0.007 | inactive: -0.072 | – | inactive: 0 | inactive: 0.039 | – | inactive: -0.003 | – | inactive: -0.045 | –
IFRD2 isoform 2 (UniProt Q12894) | inactive: 0.126 | inactive: 0.31 | inactive: -0.272 | inactive: 0.022 | inactive: 0.16 | active: -0.549 | inactive: -0.095 | inactive: -0.031 | inactive: 0.026 | –
